In article PMC9535751:
No constants are given. Whether binding was seen depends on the method and setting. Binding seen in cells or lysates may run through a third protein. Some entries that bind do so weakly or less than the wild type.

Sequences of proteins named here, by UniProt entry; tags and fusion partners are left off.
UniProt O75533: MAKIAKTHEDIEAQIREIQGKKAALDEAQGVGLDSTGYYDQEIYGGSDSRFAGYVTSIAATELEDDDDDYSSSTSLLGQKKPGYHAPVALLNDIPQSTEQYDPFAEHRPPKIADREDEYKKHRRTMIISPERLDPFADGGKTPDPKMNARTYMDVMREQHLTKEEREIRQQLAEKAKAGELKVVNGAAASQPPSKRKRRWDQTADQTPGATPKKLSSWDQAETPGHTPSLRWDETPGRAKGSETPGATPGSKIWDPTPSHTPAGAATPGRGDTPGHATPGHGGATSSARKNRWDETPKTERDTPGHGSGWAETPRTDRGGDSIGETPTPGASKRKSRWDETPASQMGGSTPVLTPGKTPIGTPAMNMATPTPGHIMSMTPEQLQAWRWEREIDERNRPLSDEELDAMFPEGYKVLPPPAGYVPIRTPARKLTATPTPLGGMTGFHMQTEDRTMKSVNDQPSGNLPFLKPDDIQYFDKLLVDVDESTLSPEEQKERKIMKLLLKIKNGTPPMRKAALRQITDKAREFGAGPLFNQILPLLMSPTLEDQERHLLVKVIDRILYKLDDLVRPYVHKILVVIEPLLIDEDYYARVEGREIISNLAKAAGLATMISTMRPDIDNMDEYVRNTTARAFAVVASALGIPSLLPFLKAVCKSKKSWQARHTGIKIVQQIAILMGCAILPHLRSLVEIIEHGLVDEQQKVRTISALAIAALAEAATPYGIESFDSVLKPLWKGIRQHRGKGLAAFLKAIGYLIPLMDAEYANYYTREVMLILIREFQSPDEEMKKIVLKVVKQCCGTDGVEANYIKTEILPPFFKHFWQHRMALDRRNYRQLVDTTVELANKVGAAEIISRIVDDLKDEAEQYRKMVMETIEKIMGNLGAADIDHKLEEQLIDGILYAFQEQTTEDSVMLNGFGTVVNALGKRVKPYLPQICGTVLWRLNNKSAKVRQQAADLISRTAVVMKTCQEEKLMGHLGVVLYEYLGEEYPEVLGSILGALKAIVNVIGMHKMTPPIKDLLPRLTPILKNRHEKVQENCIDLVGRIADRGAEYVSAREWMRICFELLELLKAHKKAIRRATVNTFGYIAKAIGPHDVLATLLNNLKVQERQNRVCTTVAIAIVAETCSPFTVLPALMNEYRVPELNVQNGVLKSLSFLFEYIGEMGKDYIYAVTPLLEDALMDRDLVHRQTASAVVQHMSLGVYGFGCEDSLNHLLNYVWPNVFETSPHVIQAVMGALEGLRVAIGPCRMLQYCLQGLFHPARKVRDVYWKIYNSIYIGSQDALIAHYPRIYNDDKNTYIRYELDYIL
UniProt Q15393: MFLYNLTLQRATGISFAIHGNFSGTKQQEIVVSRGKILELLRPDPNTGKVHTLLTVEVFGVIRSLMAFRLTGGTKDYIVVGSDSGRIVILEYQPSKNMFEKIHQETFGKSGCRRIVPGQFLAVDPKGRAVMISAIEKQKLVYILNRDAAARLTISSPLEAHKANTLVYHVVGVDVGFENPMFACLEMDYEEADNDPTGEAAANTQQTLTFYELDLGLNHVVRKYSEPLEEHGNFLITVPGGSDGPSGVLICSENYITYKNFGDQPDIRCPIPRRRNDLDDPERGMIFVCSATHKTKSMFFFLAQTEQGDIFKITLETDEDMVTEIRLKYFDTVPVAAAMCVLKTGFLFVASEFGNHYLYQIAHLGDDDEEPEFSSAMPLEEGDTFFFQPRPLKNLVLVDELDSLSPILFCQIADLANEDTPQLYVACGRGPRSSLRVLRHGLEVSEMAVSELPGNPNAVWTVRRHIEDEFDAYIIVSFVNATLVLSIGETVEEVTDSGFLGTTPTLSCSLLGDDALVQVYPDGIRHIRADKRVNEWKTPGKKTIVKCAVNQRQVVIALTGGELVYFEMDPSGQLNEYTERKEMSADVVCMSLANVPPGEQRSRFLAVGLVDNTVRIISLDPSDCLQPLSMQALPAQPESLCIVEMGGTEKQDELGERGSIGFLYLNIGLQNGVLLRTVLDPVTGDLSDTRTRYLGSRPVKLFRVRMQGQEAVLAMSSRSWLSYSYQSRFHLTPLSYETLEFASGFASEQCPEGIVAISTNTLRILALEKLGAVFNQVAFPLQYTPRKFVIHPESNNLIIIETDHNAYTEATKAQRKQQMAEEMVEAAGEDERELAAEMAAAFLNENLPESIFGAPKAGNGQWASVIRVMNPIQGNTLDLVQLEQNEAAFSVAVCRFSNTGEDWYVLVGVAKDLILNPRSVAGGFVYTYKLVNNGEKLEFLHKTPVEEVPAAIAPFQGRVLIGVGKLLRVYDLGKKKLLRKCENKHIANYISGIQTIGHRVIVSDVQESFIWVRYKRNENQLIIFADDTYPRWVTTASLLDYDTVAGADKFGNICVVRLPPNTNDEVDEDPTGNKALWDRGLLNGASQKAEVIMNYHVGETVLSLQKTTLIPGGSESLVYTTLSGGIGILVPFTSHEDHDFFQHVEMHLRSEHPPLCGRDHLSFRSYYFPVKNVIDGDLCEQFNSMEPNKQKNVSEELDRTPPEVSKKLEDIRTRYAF
UniProt Q13435: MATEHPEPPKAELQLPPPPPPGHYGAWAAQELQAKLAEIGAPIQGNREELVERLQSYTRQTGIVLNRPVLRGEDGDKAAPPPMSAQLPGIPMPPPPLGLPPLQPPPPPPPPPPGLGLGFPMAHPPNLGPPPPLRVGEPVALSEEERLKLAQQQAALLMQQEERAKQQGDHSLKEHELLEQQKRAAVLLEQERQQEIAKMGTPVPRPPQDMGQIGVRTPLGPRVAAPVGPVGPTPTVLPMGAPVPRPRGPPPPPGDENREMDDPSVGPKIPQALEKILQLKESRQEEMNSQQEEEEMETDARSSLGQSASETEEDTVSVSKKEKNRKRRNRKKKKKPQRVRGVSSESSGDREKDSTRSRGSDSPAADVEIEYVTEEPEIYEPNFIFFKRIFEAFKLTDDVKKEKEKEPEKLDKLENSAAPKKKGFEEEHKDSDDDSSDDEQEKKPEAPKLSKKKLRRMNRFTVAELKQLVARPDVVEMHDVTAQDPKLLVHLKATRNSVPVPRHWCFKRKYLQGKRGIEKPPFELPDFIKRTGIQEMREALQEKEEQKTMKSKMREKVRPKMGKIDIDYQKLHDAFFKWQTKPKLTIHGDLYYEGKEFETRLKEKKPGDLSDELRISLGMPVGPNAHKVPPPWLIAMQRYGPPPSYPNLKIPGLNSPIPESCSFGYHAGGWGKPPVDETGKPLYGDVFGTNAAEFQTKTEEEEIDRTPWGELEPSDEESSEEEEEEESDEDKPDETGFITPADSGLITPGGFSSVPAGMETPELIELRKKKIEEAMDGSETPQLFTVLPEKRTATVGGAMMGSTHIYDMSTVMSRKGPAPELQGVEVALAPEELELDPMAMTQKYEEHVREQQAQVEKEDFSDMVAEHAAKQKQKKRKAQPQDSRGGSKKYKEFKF

Experiments:
[1] = target: T1, CPSF2 (human (endogenous in HEK293 and HeLa)) (UniProt Q9P2I0); experiment: co-IP; CPSF2 antibody on Dynabeads, lysate of CDK9as HEK293 cells treated 30 min with DMSO or NA (1-NA-PP1); lysis with 1% NP-40, 150 mM NaCl, Benzonase; Western blot
T1 sequence: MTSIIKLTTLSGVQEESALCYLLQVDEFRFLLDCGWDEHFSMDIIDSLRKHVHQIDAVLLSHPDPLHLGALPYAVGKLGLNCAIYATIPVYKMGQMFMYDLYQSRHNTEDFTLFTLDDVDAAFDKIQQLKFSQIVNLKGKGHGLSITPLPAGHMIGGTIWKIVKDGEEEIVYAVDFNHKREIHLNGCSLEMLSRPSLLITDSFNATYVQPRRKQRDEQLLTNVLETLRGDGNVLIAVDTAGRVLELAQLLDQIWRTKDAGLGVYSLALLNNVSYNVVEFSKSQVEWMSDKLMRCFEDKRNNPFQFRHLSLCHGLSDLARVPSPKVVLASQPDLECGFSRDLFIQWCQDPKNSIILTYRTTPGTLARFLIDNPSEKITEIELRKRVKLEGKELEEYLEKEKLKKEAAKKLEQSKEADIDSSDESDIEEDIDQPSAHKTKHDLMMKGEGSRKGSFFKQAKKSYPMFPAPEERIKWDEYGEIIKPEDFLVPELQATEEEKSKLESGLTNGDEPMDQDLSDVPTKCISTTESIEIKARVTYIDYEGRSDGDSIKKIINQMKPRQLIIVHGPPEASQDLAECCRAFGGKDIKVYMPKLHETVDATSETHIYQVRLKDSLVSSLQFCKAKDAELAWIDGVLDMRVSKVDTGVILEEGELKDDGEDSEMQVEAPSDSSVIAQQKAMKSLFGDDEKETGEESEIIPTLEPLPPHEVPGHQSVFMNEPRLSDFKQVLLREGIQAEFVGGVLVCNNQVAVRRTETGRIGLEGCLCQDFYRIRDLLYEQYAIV

[2] = target: SF3B1 (human (endogenous in HEK293 and HeLa)) (UniProt O75533); experiment: co-IP; SF3B1 antibody on Dynabeads, lysate of CDK9as HEK293 cells treated 30 min with DMSO, NA or DRB; lysis with 1% NP-40, 150 mM NaCl, Benzonase; Western blot

Row | binding [1] | binding [2] | Substance
1 | binds | – | SF3B3 (from UniProt Q15393 1-1217)
2 | binds | – | SF3B1 (from UniProt O75533 1-1304)
3 | – | binds | SF3B2 (from UniProt Q13435 1-895)
